Measured values reported in PubChem BioAssay AID1487 (National Center for Advancing Translational Sciences (NCATS), 2009).
This is one part of the list. Shown are side measurements of this screen, not its main read-out; they come without a call. Compounds called inactive in the main read-out are mostly missing here. The note in brackets gives the kind of curve behind each potency; many fits are weak.

Experiment: qHTS Assay for Modulators of Lamin A Splicing
Conditions: HeLa LMNA splicing GFP/RFP minigene ratio, 48 h
How it was run: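 Read-out is the ratio of GFP to DsRed2 object intensity, acquired by 488 nm laser-scanning cytometry on HeLa lamin A-EGFP minigene reporter cells. Compound incubation 48 hrs at 37 °C in Opti-MEM with 2% FBS; DMSO 0.5% final.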

[1] = measured here: GFP splicing reporter channel
[2] = measured here: RFP viability control channel

Compound | AC50 [1] | AC50 [2]
Cc1ccc(C(=O)N2CCN3C(=O)c4ccccc4C23c2ccc(Cl)cc2)cc1 (configuration not stated) | 12.6 µM [falling, single point] | 14.1 µM [falling, partial curve]
COc1cccc(CC(=O)Nc2ccc(S(=O)(=O)Nc3nc(C)cc(C)n3)cc2)c1 |  | 0.0251 µM [falling, full curve, poor fit]
COc1cc(/C=C/C(=O)OCC(=O)N2CCC(Cc3ccccc3)CC2)ccc1O |  | 12.6 µM [rising, single point]
O=C(C(c1ccccc1)c1ccccc1)N1CCN(CCN2C(=O)c3cccc4cccc(c34)C2=O)CC1 |  | 17.8 µM [rising, single point]
COc1ccc(O[C@H]2C=C[C@@H](c3ccccc3)O[C@@H]2COC(=O)CC/C(C)=N/OC[C@@H](O)[C@H]2O[C@@H]3OC(C)(C)O[C@@H]3[C@H]2O)cc1 |  | 17.8 µM [rising, single point]
COc1ccc2c(c1)c1nnc(SC)nc1n2C |  | 22.4 µM [rising, partial curve, poor fit]
CCCCOc1cc(C)nc(NCc2ccccc2)n1 | 15.8 µM [rising, partial curve, poor fit] | 35.5 µM [rising, single point]
Cc1ccc(/C=C/c2nc3ccccc3c(=O)n2CCc2ccccc2)cc1 |  | 17.8 µM [rising, partial curve]
O=C(NCc1ccccc1)c1cc(=O)c2ccccc2o1 |  | 0.0501 µM [falling, full curve, poor fit]
Cc1ccc(/C=N/NC(=O)c2csc3c2CCCC3)cc1 | 35.5 µM [rising, single point] | 14.1 µM [rising, partial curve]
CCSC1=C(C#N)C(c2ccc(Cl)cc2)C2=C(CCCC2=O)N1 (configuration not stated) |  | 11.2 µM [rising, single point]
CCOC(=O)c1c(C)oc2nc(C)nc(N3CCN(c4cccc(C(F)(F)F)c4)CC3)c12 |  | 12.6 µM [rising, partial curve, poor fit]
CCOC(=O)c1cccc(NC(=O)CN2CCN(c3ccc(OC)cc3)CC2)c1 |  | 31.6 µM [rising, single point]
CCn1ncc([N+](=O)[O-])c1C(=O)Nc1ccc(C(=O)N2CCCCC2)cc1 | 11.2 µM [rising, partial curve] | 15.8 µM [rising, partial curve]
Cc1ccc(SCCC(=O)Nc2cc(C)on2)cc1 | 0.2 µM [rising, partial curve] | 0.891 µM [rising, partial curve]
O=C(NCC(c1ccc2c(c1)OCO2)N1CCN(c2ccccc2F)CC1)c1ccccc1F (configuration not stated) | 35.5 µM [falling, single point] | 
CC(=O)OCC(=O)C1=CCC2C3CCC4=CC(=O)C=CC4(C)C3(F)C(OC(C)=O)CC12C (configuration not stated) |  | 0.0158 µM [falling, full curve, poor fit]
CC(C)n1c(-c2ccco2)csc1=Nc1cccnc1 |  | 11.2 µM [rising, partial curve]
COCCn1c(CNc2ccc(F)cc2)nnc1SCC(=O)Nc1ccc(OC)cc1OC | 8.91 µM [rising, partial curve, poor fit] | 12.6 µM [rising, partial curve]
Cc1ccc2[nH]c(CSc3nnc(NC(=O)COc4ccc(F)cc4)s3)cc(=O)c2c1 | 0.0224 µM [rising, full curve, poor fit] | 
Cc1cc(C(=O)CN2C(=O)C3CC=CCC3C2=O)c(C)n1-c1ccccc1 (configuration not stated) | 31.6 µM [rising, single point] | 31.6 µM [rising, single point]
O=C(NCc1cccnc1)c1cc(Sc2ccccc2Cl)nc2ccccc12 |  | 12.6 µM [rising, partial curve]
CC(C)(C)OC(=O)NCCCCCc1nnc(SCC(=O)Nc2cccc(Cl)c2)o1 | 8.91 µM [rising, partial curve] | 3.98 µM [rising, partial curve]
COc1ccccc1CCNC(=O)C(=O)NCC1OCCN1S(=O)(=O)c1ccc(Br)cc1 (configuration not stated) |  | 10 µM [rising, partial curve]
O=C(NN=C1CCCCCCC1)c1ccc2ccccc2n1 |  | 0.708 µM [falling, full curve, poor fit]
O=C(CSc1nnnn1-c1ccc2c(c1)OCCO2)N1CCc2ccccc21 |  | 20 µM [rising, single point]
COc1ccc(CCNC(=O)CSc2ccccc2)cc1OC | 8.91 µM [rising, partial curve, poor fit] | 
Cc1c(C(=O)NCc2ccc(OC(C)C)cc2)sc2ncnc(N(C)C3CCCCC3)c12 |  | 35.5 µM [falling, partial curve, poor fit]

Compound | AC50 [1] | AC50 [2]
CC1(C)CC2CC(C)(CN2S(=O)(=O)c2ccc(C(=O)Nc3ccc(S(=O)(=O)N4CCOCC4)cc3)cc2)C1 (configuration not stated) |  | 2 µM [rising, full curve]
COC(=O)c1ccc(NC(=O)Nc2ccc(F)cc2F)cc1 |  | 7.08 µM [rising, full curve, poor fit]
CC#C[C@]1(O)CC[C@H]2[C@@H]3CCC4=CC(=O)CCC4=C3[C@@H](c3ccc(N(C)C)cc3)C[C@@]21C | 12.6 µM [rising, partial curve] | 17.8 µM [rising, partial curve]
COCCN(CCOC)c1nc(S(=O)(=O)c2ccc(C)cc2)c(Cl)s1 |  | 31.6 µM [rising, single point]
O=C(Nc1ccc(Cl)cc1C(F)(F)F)C(Sc1nnc(-c2cccs2)o1)c1ccccc1 (configuration not stated) |  | 1.78 µM [rising, full curve, poor fit]
Cc1c(/C=N/n2cnnc2)c2ccccc2n1CCOc1ccccc1 | 11.2 µM [rising, partial curve] | 
O=S(=O)(c1ccc(Oc2ccc(Br)cc2)cc1)N1CCOCC1 |  | 14.1 µM [rising, partial curve]
CCOP(=O)(OCC)/C(C#N)=C/c1ccc([N+](=O)[O-])cc1 | 0.00398 µM [rising, full curve, poor fit] | 
COc1ccc(C(=O)N/N=C(\CCC(=O)O)c2ccc(C(C)(C)C)cc2)cc1OC |  | 35.5 µM [rising, partial curve, poor fit]
c1ccc(CC2CCN(c3nnnn3-c3ccccc3)CC2)cc1 |  | 10 µM [rising, partial curve]
O=C1c2ccccc2NC(c2ccc(-c3ccc(Br)cc3)o2)N1O (configuration not stated) | 35.5 µM [rising, single point] | 
O=C(CSc1ccc(-c2ccncc2)nn1)c1ccc(Cl)cc1 | 7.94 µM [falling, partial curve] | 6.31 µM [falling, partial curve]
O=c1[nH]c(CSc2ncc(-c3ccc(F)cc3)n2Cc2ccco2)nc2ccccc12 | 10 µM [rising, partial curve] | 17.8 µM [rising, single point]
COCc1cc(C)n(CC(=O)OC)c(=O)c1C#N | 1.26 µM [falling, partial curve, poor fit] | 
CCOC(=O)c1cnc2c(-c3ccc(Cl)cc3)cnn2c1C |  | 0.00631 µM [falling, full curve, poor fit]
Cc1cc(Oc2ccc(C#N)cc2)nc(N2CCOCC2)n1 |  | 15.8 µM [rising, partial curve, poor fit]
COc1ccc(OCCSc2nnc(Cc3cccc4ccccc34)n2N)cc1 | 31.6 µM [rising, single point] | 31.6 µM [rising, single point]
COc1ccc(N=Nc2nc(-c3ccccc3)c(-c3ccccc3)[nH]2)cc1 | 20 µM [rising, single point] | 20 µM [rising, partial curve]
CCOc1ccc(-c2nnc(-c3ccco3)o2)cc1OCC |  | 11.2 µM [rising, single point]
O=C(O)C1=CC(=C(c2ccc(O)c(C(=O)O)c2)c2ccc(O)c(C(=O)O)c2)C=CC1=O | 14.1 µM [rising, single point] | 22.4 µM [rising, single point]
COc1ccc(C(=O)Nc2nnc(S(=O)(=O)N3CCC(C)CC3)s2)cc1OC | 35.5 µM [falling, single point] | 35.5 µM [falling, partial curve, poor fit]
CCc1ccc(NC(=O)c2ccc(F)c(S(=O)(=O)N(CC)c3ccccc3)c2)cc1 |  | 5.62 µM [rising, single point]
C/C(=N\NC(=O)C(N)=O)c1cccc(C(F)(F)F)c1 | 0.0891 µM [falling, full curve, poor fit] | 
O=C1CC(c2ccco2)CC2=C1C1c3ccccc3C(=O)N1c1ccccc1N2 (configuration not stated) | 11.2 µM [falling, partial curve] | 35.5 µM [rising, single point]
CC(C)c1ccc(-c2nnn(Cc3nc4ccccc4s3)n2)cc1 |  | 31.6 µM [rising, single point]
CN([C@@H](Cc1ccc(OS(=O)(=O)c2cccc3cnccc23)cc1)C(=O)N1CCN(c2ccccc2)CC1)S(=O)(=O)c1cccc2cnccc12 | 8.91 µM [rising, partial curve] | 12.6 µM [rising, partial curve]
O=c1c2sccc2nc(SCc2cc(=O)n3cc(Cl)ccc3n2)n1Cc1ccccn1 | 0.158 µM [falling, full curve, poor fit] | 

By substructure, the compounds so far with a cyano group (four)
Compound | AC50 [1] | AC50 [2]
CCSC1=C(C#N)C(c2ccc(Cl)cc2)C2=C(CCCC2=O)N1 (configuration not stated) |  | 11.2 µM [rising, single point]
CCOP(=O)(OCC)/C(C#N)=C/c1ccc([N+](=O)[O-])cc1 | 0.00398 µM [rising, full curve, poor fit] | 
COCc1cc(C)n(CC(=O)OC)c(=O)c1C#N | 1.26 µM [falling, partial curve, poor fit] | 
Cc1cc(Oc2ccc(C#N)cc2)nc(N2CCOCC2)n1 |  | 15.8 µM [rising, partial curve, poor fit]
